Drawing on patent US7666619B2, “Compounds and methods for regulating bacterial growth and pathogenesis” (Princeton University, priority 2000, dated 2010), this text covers MIC for one compound.

SMILES strings stand for the structures. ≈ marks a conversion by molar mass, not a printed value.

For orientation: MIC means the smallest concentration in the dilution series that meets the test's criterion for growth inhibition. Higher therefore signals weaker potency.

The subject of this test is Staphylococcus aureus ATCC 25923. The test is described as follows: Antibiotic susceptibility assay (NCCLS broth microdilution). The format is cell-based. Particulars: ATCC25923, antibiotic alone. The protocol:
Antimicrobial susceptibility testing was conducted according to the National Committee for Clinical Laboratory Standards (NCCLS) reference method “Broth Dilution Procedure (Microdilution)” published January 1977 (UPDATE VERSION). The method yields a minimum inhibitory dose (MIC) required for complete inhibition of bacterial growth. MICs were determined using a dilution series of antibiotic, in which all of the wells contained a constant concentration of the inhibitor compound was maintained. In addition, before the instant susceptibility tests were performed, the inhibitor compounds were tested in the appropriate inhibitor screens (See, for example, FIG. 32 for the AI-2 inhibitor 2-ethyl-4-hydroxy-5-methyl-3(2H)-furanone). […] Experiments were conducted in 96 well microtiter plates using a final volume of 0.1 ml/well. Assays were conducted using either Mueller-Hinton broth, Todd-Hewitt broth, or Nutrient Broth (Difco). The bacterial innoculum was prepared from a log phase overnight culture of Streptococcus pyogenes ATCC 19615 or Staphylococcus aureus ATCC 25923. […] MIC values were determined by spectrophotometric measurements of absorbance at 600 nm. […] Fold-changes in MIC concentration were determined by comparing the MIC for antibiotic and quorum inhibitor compounds with the MIC measured using antibiotic alone.

Take `CC1(C)S[C@@H]2[C@H](NC(=O)[C@H](N)c3ccccc3)C(=O)N2[C@H]1C(=O)O` [ampicillin]: the MIC was found to be 1.6 µg/mL (≈ 4.58 µM).
